# B1: PSMA(5LH)-CAR, derived from antibody #1377 (VL-linker-VH) (other)
# Protein sequences, listed by entry. Tags and fused reporters are not part of them. Residues count along the entry.
# UniProt Q04609, 44-750: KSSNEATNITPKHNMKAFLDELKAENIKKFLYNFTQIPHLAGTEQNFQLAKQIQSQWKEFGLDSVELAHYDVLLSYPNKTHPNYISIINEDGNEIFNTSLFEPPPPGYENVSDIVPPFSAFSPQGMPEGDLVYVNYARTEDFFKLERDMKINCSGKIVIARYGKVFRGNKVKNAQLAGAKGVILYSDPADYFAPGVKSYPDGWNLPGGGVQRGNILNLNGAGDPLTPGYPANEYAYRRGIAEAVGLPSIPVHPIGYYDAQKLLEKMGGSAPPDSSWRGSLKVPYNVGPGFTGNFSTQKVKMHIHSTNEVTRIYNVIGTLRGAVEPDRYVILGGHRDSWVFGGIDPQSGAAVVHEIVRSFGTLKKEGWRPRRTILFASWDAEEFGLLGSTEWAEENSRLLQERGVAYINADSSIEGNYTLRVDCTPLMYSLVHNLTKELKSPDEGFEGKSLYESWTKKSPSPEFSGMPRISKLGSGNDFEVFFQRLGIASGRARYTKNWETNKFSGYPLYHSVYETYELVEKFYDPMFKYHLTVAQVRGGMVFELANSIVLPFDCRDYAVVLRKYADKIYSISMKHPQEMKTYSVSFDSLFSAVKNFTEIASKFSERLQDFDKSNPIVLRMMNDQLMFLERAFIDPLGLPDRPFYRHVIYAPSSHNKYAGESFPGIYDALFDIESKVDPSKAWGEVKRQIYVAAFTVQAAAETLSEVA
# chain: DVVLTQAPLSLPVSLGDQASISCRSSQSLEYSNGNTYLHWYLQKPGQSPELLIYTVSNRFSGVPDRFSGSGSGTDFTLKIHRVEAEDLGVYFCSQSTHVPTFGGGTKLEIKRGGGGSGGGGSGGGGSVQLQQPGAALVRPGASVRLSCKASGYSFTYYWMNWVMQRPGQGLEWIGMIHPSDSETRLSQKFRDKATLTVDKSSSTVYMQLNSPTSDDSAVYYCARDGNFPYYALDYWGQGTSVTVSSTTTPAPRPPTPAPTIASQPLSLRPEACRPAAGGAVHTRGLDFACDIYIWAPLAGTCGVLLLSLVITLYCKRGRKKLLYIFKQPFMRPVQTTQEEDGCSCRFPEEEEGGCELRVKFSRSADAPAYKQGQNQLYNELNLGRREEYDVLDKRRGRDPEMGGKPRRKNPQEGLYNELQKDKMAEAYSEIGMKGERRRGKGHDGLYQGLSTATKDTYDALHMQALPPR
# notes: Chimeric antigen receptor on transduced human T cells
# Target: T1, Fluorescence-labeled PSMA protein (biotin-labelled purified PSMA protein with Alexa Fluor 647 Streptavidin) (human, UniProt Q04609 44-750, biotin label (EZ link Sulfo-NHS-Biotin), incubated with Alexa Fluor 647 Streptavidin)
# T1 construct: This is the purified PSMA protein of m9 after labelling; also called fluorescence labeled recombinant PSMA protein; home-made fluorescent probe
# Experiment: flow cytometry of CAR T cells with fluorescence labeled recombinant PSMA protein as probe
# Text: (A3). In vitro cytotoxicity of PSMA-CAR T cells. Human peripheral blood mononuclear cells (PBMC) were isolated from leukopak following a SOP published by Hanc (HIV/ADIS Network Coordination). T cells including CD4+ and CD8+ T cells were isolated from PBMC with human T cell isolation kit (Miltenyi Biotec). T cells were activated by Dvnabeads human T-Activator CD3/CD28 (ThermoFisher) for 24 hrs, then transduced with lentiviruses expressing PSMA-CARs. Transduced cells were expanded for 8 to 21 days in culture. Flow cytometry was performed to determine the percentage of T cells that express functional CAR. To prepare home-made fluorescent probe, we labeled purified PSMA protein with biotin using EZ link Sulfo-NHS-Biotin (ThermoFisher), then incubated with Alexa Fluor® 647 Streptavidin (BioLegend) to obtain the probe.
# For IFNγ induction (FIGS. 14C, 14D)), 4LH-CAR, 7LH-CAR, 5LH-CAR appeared to be the strongest. […] We also tested the in vitro killing on PSMA-positive VCaP cells, PSMA-negative wild type PC3 cells, and PSMA-positive PC3-PSMA stable cells. As anticipated, the PSMA-CAR T cell cytotoxicity IFNγ induction were strictly PSMA-dependent. Moreover, using fluorescence labeled recombinant PSMA protein as probe, flow cytometry analysis was performed on non-transduced and 11 PSMA-CAR T cells.
binder,measurement,value
B1,percentage of CAR T cells positive for PSMA binding,53%

# Source: US20230381316A1 (METHODIST HOSPITAL, published 2023)
